PubChem BioAssay AID504791 – Drosophila RNAi Screening Center – 2011
In all, the deposit lists about 23,000 reagents; shown is an unselected part of those with a known target gene and a result. In the full data, 199 (0.86%) were called active. 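Plate-scaled ratios behind the calls are not deposited; printed light signals are raw; many rows marked increased or decreased are still called inactive.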 The numbers tell different reagents against one gene apart. Names joined by + are all predicted targets of the reagent. Not stated in the record: the direction of the score.

Aim: 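Genes of the fly required for silencing by miRNA, siRNA or endo-siRNA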 (primary screen)
Cell system: Drosophila S2-derived reporter cells
Knock-down reagent: long dsRNA against Drosophila genes, about 150-250 ng dsRNA per well (siRNA assay); about 80-120 ng (miRNA assay)
Timing: about 5 days (siRNA assay); about 4 days (miRNA assay)
Conditions: copper sulfate induction of reporters: 25 µM (siRNA assay); 200 mM stated (miRNA assay), 1-2 days before reading
Measured: 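Per-well ratio of Renilla over firefly light, expressed relative to that plate's average ratio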
Call rule: 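a well was a first-pass pick when its plate-scaled ratio rose above 1.5 (siRNA assay) or 1.6 (miRNA assay), or dropped below 0.6; a gene counted only if two separate dsRNAs agreed on retest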

no.	gene knocked down	reagent	stable siRNA reporter change	miRNA reporter change	stable assay Renilla, run 1 (luminescence)	stable assay firefly, run 1 (luminescence)	Call
1	CG32986	1			7211	5.71e5	inactive
2	CG14245	1			6583	6.28e5	inactive
3	CG32428	1			7972	2.93e5	inactive
4	CG32428	2			7072	4.15e5	inactive
5	CNT1 (Concentrative nucleoside transporter 1)	1			5896	2.69e5	inactive
6	cal1 (chromosome alignment defect 1)	1			8734	4.00e5	inactive
7	vrs (versager)	1			5962	3.47e5	inactive
8	CG17065	1			6511	5.21e5	inactive
9	CG1368	1			8123	5.27e5	inactive
10	eIF2beta (eukaryotic translation initiation factor 2 subunit beta)	1	reporter ratio lowered past the hit cutoff	reporter ratio raised past the hit cutoff	5408	7.22e5	inactive
11	CG15522	1			7130	4.15e5	inactive
12	CG14013	1			8663	4.32e5	inactive
13	slim (scruin like at the midline)	1			9091	3.30e5	inactive
14	olf186-M	1			4747	3.13e5	inactive
15	CG12645	1			5596	4.32e5	inactive
16	Sting	1			6168	4.53e5	inactive
17	CG15226 (retired record)	1			6586	4.42e5	inactive
18	CG15226 (retired record)	2			6755	4.13e5	inactive
19	CG8289	1			8566	3.78e5	inactive
20	CG8289	2		reporter ratio raised past the hit cutoff			inactive
21	GC2	1			7934	4.07e5	inactive
22	nord	1			5531	2.95e5	inactive
23	nord	2			6226	4.14e5	inactive
24	Rcd2 (Reduction in Cnn dots 2)	1			7670	3.45e5	inactive
25	CG31800	1			4863	4.46e5	inactive
26	pav (pavarotti)	1			7888	3.72e5	inactive
27	Fum2 (Fumarase 2)	1			5419	3.25e5	inactive
28	beta3GalTII (beta-1,3-Galactosyltransferase II)	1			6646	3.74e5	inactive
29	Mal-A8 (Maltase A8)	1			7973	5.47e5	inactive
30	CG5151	1	reporter ratio raised past the hit cutoff		5588	1.79e5	inactive
31	CG5151	2			5232	2.82e5	inactive
32	Cpr62Ba (Cuticular protein 62Ba)	1			5459	3.04e5	inactive
33	for (foraging)	1			4930	3.58e5	inactive
34	for (foraging)	2			22979	2.76e5	inactive
35	CG12641 (retired record)	1			4579	2.66e5	inactive
36	CG12641 (retired record)	2			3359	2.86e5	inactive
37	Axud1 (AXIN1 up-regulated 1)	1			8489	4.79e5	inactive
38	COX5BL (Cytochrome c oxidase subunit 5B-like)	1			7004	4.50e5	inactive
39	Ranbp16	1			4548	3.52e5	inactive
40	Tina-1 (Troponin C-akin-1)	1			79628	8.44e5	inactive
41	Sox102F	1			7156	3.07e5	inactive
42	TfIIS (RNA polymerase II elongation factor)	1			7363	1.36e6	inactive
43	sob	1		reporter ratio lowered past the hit cutoff	5338	2.35e5	inactive
44	CG14265	1			6974	4.33e5	inactive
45	CG17207	1			6967	3.11e5	inactive
46	GstE13 (Glutathione S transferase E13)	1			9310	5.02e5	inactive
47	CG31457	1			3888	3.32e5	inactive
48	MRG15 (MORF-related gene 15)	1			10739	4.27e5	inactive
49	Or88a (Odorant receptor 88a)	1			7724	4.10e5	inactive

Laid out differently: 7 of the entries above
gene knocked down | reagent | stable siRNA reporter change | miRNA reporter change | stable assay Renilla, run 1 (luminescence) | stable assay firefly, run 1 (luminescence) | Call
CG32986 | 1 | – | – | 7211 | 5.71e5 | inactive
CG14245 | 1 | – | – | 6583 | 6.28e5 | inactive
CG32428 | 1 | – | – | 7972 | 2.93e5 | inactive
CG32428 | 2 | – | – | 7072 | 4.15e5 | inactive
CNT1 (Concentrative nucleoside transporter 1) | 1 | – | – | 5896 | 2.69e5 | inactive
cal1 (chromosome alignment defect 1) | 1 | – | – | 8734 | 4.00e5 | inactive
vrs (versager) | 1 | – | – | 5962 | 3.47e5 | inactive

Further reagents follow:
no.	gene knocked down	reagent	stable siRNA reporter change	miRNA reporter change	stable assay Renilla, run 1 (luminescence)	stable assay firefly, run 1 (luminescence)	Call
50	SkpD (SKP1-related D)	1			9266	5.65e5	inactive
51	PNKP (Polynucleotide kinase 3'-phosphatase)	1			7203	4.87e5	inactive
52	Magi	1			65686	6.03e5	inactive
53	Magi	2			7398	5.25e5	inactive
54	CG12780	1			6274	2.74e5	inactive
55	BomS4 (Bomanin Short 4)	1			5171	4.01e5	inactive
56	CG4269	1			6072	3.88e5	inactive
57	CG42809 + CG42810	1			6947	5.42e5	inactive
58	CG42809 + CG42810	2			7680	3.71e5	inactive
59	GckIII (Germinal centre kinase III)	1			7323	4.38e5	inactive
60	Vps16A (Vacuolar protein sorting 16A)	1			6455	4.42e5	inactive
61	Or67a (Odorant receptor 67a)	1			5059	2.87e5	inactive
62	CG14835	1			6586	4.64e5	inactive
63	CG11771	1		reporter ratio raised past the hit cutoff	10876	3.17e5	inactive
64	Sodq (Sodesque)	1			6918	3.82e5	inactive
65	Hinfp (Histone H4 transcription factor)	1			6075	4.63e5	inactive
66	Or1a (Odorant receptor 1a)	1			7118	4.86e5	inactive
67	mh (maternal haploid)	1			6144	4.54e5	inactive
68	CG9512	1			9131	5.60e5	inactive
69	caz (cabeza)	1			2748	2.93e5	inactive
70	caz (cabeza)	2			2603	3.25e5	inactive
71	caz (cabeza)	3		reporter ratio lowered past the hit cutoff	2608	2.55e5	active
72	caz (cabeza)	4		reporter ratio lowered past the hit cutoff			active
73	CG14556	1			6667	3.17e5	inactive
74	BomBc1 (Bomanin Bicipital 1)	1			6592	3.15e5	inactive
75	CG11977	1			7131	4.01e5	inactive
76	gem (gemini)	1			7395	3.44e5	inactive
77	gem (gemini)	2			6019	4.76e5	inactive
78	nopo (no poles)	1			9212	2.66e5	inactive
79	grsm (granny smith)	1	reporter ratio lowered past the hit cutoff		6206	5.73e5	inactive
80	grsm (granny smith)	2			6083	4.65e5	inactive
81	CG6813	1			6679	3.31e5	inactive
82	CG5618	1	reporter ratio lowered past the hit cutoff		4699	3.34e5	inactive
83	Arp2 (Actin-related protein 2)	1			5015	4.55e5	inactive
